No constants are given. Whether binding was seen depends on the method and setting. In cells and extracts the contact can be indirect. Some entries that bind do so weakly or less than the wild type. Where a sequence is shown, tags or fusion partners need not be part of it.
Legend:
[1] = molecular target: T1, Flag-tagged ROC fragment ΔP-Loop (lacking amino acids 695-702) (human) (UniProt P53355); assay: co-immunoprecipitation with anti-Flag beads from co-transfected HEK 293T cells, western blot (FIG. 2D)
T1 sequence: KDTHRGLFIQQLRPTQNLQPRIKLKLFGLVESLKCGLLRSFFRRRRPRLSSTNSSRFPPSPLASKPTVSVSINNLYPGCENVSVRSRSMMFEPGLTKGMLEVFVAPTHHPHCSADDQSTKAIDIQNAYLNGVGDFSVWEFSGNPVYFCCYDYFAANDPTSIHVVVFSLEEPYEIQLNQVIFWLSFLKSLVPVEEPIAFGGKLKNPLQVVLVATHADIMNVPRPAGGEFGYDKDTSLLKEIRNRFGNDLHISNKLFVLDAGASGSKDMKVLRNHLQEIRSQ

[2] = molecular target: T2, Flag-ROC fragment (N-terminal Flag-tagged DAPk ROC fragment, amino acids 667-954) (human) (UniProt P53355); assay: as above
T2 sequence: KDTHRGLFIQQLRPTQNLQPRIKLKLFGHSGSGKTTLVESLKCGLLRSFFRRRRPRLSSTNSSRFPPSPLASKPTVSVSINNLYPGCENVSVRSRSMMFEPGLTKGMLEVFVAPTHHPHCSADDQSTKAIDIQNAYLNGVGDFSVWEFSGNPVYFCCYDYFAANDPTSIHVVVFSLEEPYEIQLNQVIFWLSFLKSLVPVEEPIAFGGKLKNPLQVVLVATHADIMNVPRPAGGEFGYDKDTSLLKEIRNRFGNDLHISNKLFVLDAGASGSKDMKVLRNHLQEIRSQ

B1: HA-ROC (N-terminal HA-tagged DAPk ROC fragment, amino acids 667-954) (protein, not shown: small tags and cut ends)
chain: T2 sequence
binding [1]: binds | binding [2]: binds

— US20130266582A1
